At least one compound was matched to its structure with a doubt left.
Experiments:
[1] = tested on: CD45^+ cells from mSK-Mel254 tumors; assay: Coupled scRNA-seq and scTCR-seq of sorted CD45+ cells; type: in vivo, mouse; conditions: FIG. 3J
[2] = tested on: YUMM1.7ER-luc (Braf^V600E melanoma) intracranial and extracranial metastases; assay: Experimental metastasis of syngeneic melanoma (intracardiac injection, BLI, survival); conditions: MEKi monotherapy from d0

CC(=O)Nc1cccc(-n2c(=O)n(C3CC3)c(=O)c3c(Nc4ccc(I)cc4F)n(C)c(=O)c(C)c32)c1 [Trametinib, trametinib] was tested, and the “Ratios of expansion indices of CD8^+ TC or Ki-67^hi CD8^+ T cells to TREG” value [1] was “persisted at low levels near that observed in the vehicle-treated group” and the “Extracranial metastatic tumor burden in surviving mice past 4 weeks” value [2] was “clearly reduced”.

From patent US20250066480A1, “METHODS TO ENHANCE EFFICACY OF COMBINED TARGETING OF IMMUNE CHECKPOINT AND MAPK PATHWAYS” (THE REGENTS OF THE UNIVERSITY OF CALIFORNIA, priority 2021, published 2025)
